In the supplement of paper PMC10849652:
This is one part of the list.

Protein sequences, listed by entry. Tags and fused reporters are not part of them. Lines headed by an entry give the natural chain unless they say otherwise; changes in a name come on top.
UniProt Q99719: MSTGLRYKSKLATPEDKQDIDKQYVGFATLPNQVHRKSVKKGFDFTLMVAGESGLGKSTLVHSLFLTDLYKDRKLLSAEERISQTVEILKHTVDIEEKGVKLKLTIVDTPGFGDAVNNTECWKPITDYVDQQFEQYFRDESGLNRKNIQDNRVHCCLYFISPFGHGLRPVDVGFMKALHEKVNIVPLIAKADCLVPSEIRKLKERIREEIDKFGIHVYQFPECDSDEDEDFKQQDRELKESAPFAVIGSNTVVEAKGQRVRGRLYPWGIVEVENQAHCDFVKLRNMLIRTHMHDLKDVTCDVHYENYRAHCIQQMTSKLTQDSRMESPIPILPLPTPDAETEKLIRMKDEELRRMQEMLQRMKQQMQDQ
UniProt Q8WU76: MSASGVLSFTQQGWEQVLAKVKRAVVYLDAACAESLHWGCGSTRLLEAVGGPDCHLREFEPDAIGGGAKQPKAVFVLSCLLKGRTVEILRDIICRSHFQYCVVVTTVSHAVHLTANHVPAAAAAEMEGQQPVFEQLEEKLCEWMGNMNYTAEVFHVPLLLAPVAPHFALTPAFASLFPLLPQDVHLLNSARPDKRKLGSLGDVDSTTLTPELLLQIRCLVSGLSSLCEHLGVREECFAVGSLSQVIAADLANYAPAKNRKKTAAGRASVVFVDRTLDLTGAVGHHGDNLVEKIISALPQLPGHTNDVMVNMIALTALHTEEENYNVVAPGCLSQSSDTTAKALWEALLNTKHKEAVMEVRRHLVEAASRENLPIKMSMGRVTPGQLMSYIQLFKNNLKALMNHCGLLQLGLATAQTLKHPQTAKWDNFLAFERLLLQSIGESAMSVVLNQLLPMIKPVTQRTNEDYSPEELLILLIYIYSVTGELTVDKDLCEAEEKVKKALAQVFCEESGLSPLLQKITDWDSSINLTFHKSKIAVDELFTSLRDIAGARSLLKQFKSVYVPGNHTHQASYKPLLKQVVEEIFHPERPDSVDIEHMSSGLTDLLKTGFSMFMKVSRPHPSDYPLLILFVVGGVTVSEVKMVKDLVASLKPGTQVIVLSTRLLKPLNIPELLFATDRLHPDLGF
UniProt Q8WVM8, whole entry, looked up: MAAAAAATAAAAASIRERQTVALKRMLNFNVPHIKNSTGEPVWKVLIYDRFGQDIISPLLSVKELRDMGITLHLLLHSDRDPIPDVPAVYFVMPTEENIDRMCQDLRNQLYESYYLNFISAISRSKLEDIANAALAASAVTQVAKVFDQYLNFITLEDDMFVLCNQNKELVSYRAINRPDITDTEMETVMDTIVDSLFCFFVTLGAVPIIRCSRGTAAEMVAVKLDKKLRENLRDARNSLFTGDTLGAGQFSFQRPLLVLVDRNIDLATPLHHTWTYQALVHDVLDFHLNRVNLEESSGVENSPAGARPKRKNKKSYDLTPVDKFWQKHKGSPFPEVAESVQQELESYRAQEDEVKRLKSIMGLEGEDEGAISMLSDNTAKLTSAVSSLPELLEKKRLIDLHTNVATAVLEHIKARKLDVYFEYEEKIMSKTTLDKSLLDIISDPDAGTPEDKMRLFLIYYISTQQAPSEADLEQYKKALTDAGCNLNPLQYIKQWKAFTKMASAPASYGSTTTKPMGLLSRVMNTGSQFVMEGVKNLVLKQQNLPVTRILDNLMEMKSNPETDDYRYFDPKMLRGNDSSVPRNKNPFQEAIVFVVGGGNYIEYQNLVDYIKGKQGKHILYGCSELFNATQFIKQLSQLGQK
UniProt Q99442: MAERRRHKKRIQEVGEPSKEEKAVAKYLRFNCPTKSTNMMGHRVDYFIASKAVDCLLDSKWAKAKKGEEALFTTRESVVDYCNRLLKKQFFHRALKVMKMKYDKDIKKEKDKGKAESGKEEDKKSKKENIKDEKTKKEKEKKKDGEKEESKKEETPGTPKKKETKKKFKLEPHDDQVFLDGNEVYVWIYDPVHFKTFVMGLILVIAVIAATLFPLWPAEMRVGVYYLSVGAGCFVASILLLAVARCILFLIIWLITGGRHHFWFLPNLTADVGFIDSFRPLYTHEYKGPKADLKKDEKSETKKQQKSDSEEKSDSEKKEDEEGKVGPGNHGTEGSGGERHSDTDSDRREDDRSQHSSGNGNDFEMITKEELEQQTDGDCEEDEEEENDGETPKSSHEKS
UniProt P22307: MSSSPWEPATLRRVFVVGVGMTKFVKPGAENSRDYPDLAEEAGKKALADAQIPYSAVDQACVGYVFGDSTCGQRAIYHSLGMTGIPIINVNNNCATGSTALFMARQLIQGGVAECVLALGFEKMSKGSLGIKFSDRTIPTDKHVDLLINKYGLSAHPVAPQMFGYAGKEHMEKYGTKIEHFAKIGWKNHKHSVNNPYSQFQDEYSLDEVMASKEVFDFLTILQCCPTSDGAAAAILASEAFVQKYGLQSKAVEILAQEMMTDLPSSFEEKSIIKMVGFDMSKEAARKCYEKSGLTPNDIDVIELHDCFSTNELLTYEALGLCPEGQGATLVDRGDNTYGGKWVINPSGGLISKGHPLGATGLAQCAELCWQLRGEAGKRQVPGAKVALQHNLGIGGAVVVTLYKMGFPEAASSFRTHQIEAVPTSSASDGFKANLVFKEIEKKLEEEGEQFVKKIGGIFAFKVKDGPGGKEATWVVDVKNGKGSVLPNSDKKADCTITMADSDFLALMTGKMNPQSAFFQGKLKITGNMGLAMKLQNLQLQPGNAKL
UniProt Q96GA7: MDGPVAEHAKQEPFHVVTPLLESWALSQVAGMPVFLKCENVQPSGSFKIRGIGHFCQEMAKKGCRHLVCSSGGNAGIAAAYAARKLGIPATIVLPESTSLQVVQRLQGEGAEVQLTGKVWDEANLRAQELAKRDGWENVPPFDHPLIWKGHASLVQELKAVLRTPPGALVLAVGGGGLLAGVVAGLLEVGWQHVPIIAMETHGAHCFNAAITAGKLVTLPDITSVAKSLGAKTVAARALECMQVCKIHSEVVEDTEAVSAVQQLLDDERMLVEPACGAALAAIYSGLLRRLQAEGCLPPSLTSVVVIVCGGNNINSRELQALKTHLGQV
UniProt Q9C0D9, whole entry, looked up: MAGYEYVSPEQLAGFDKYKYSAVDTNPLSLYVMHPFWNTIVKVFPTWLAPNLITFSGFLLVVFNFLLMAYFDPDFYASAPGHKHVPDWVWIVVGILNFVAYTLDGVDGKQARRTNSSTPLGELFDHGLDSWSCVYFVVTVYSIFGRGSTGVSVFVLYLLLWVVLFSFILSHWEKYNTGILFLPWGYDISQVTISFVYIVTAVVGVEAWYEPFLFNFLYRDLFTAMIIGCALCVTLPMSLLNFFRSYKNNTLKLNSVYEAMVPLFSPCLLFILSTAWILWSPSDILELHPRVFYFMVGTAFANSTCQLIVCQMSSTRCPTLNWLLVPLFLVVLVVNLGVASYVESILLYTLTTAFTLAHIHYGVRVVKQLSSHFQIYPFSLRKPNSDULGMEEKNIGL
UniProt P62341, whole entry, looked up: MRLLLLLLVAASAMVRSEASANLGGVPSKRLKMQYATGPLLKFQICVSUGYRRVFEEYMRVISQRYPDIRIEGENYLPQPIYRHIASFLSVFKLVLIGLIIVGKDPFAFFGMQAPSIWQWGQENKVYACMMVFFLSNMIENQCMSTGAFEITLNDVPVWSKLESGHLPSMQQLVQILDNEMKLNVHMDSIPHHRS
UniProt Q9BWG6: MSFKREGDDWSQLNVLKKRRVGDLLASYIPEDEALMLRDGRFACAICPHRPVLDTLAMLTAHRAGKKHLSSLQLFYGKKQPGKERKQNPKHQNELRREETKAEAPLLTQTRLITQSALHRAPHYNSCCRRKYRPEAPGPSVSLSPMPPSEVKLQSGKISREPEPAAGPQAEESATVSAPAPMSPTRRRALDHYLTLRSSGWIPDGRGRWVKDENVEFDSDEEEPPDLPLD
UniProt Q96LD8: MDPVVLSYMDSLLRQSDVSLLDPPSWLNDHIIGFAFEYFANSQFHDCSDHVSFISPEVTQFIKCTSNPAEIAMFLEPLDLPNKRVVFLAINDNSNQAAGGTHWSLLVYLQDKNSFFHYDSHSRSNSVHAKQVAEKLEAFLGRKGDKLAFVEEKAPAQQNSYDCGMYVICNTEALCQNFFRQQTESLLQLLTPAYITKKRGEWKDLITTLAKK
UniProt Q9BY50: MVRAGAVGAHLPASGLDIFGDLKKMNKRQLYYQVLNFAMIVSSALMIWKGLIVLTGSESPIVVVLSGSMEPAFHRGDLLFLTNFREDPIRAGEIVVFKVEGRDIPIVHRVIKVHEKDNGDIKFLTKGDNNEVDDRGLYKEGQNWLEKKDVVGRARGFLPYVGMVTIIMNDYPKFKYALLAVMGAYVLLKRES
UniProt O95969: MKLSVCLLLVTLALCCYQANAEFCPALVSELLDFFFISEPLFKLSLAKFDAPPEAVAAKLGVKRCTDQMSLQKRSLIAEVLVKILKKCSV

Columns and labels:
Experiment in all cases: log2 fold change, soluble protein after heating vs DMSO (PISA); higher = thermal stabilisation; K562 lysate, 10 uM; active = over 0.2 and 3.5 SD of the protein, either way, in both replicates (recomputed)
ibrutinib = compound: C=CC(=O)N1CCC[C@@H](n2nc(-c3ccc(Oc4ccccc4)cc3)c3c(N)ncnc32)C1 [ibrutinib]
Summary of the method: (§1)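 Thermal stability, expressed as log-two fold change relative to solvent controls, is given from duplicates. Crude K562 extract in PBS pH 7.4 with 1 mM MgCl2, at 1 mg/mL protein, was treated with 10 μM compound for 30 min and heated in aliquots for 3 min across 48°C-58°C. After pooling, adjustment to 0.5% NP-40 at 4°C and centrifugation at 21,000xg for 90 min, supernatant protein was measured by TMTpro 16plex LC-MS/MS with channel sums equalised.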

[1] = compound: CC(=O)c1cnc2ccc(-c3cc(Cl)c(O)c(Cl)c3)nc2c1N[C@H]1CC[C@H](CN(C)C)CC1
Summary of the method: as §1

ralimetinib = compound: CC(C)(C)Cn1c(N)nc2ccc(-c3[nH]c(C(C)(C)C)nc3-c3ccc(F)cc3)nc21 [ralimetinib]
Summary of the method: as §1

[2] = compound: CC(C)(O)CC(=O)NCCn1ccc2ncnc(Nc3ccc(Oc4cccc(C(F)(F)F)c4)c(Cl)c3)c21
Summary of the method: as §1

[3] = compound: CC(C)C1=C2N=C(C=C(N2N=C1)NCC3=CC=CC=C3)NCCCCCCN
Summary of the method: as §1

[4] = compound: CC1=C(C(CC(=O)N1)C2=CC=C(C=C2)C(F)(F)F)C(=O)NC3=C(C=C4C(=C3)C=NN4)F
Summary of the method: as §1

[5] = compound: CC1=C(C2=C(C=C1)C(=O)C3=CC=CC=C3N2CCCN)C
Summary of the method: as §1

[6] = compound: CC1=C(C=C(C=C1)NC(=O)C2=CC(=CC=C2)C(C)(C)C#N)NC3=CC4=C(C=C3)N=CN(C4=O)C
Summary of the method: as §1

[7] = compound: CC1=C(C=C(C=C1)NC(=O)C2=CC(=CC=C2)N(C)C)NC(=O)C3=CC=C(C=C3)O
Summary of the method: as §1

[8] = compound: CC1=CC=C(C=C1)SC2=C3C=C(SC3=CN=C2)C(=O)N
Summary of the method: as §1

vemurafenib = compound: CCCS(=O)(=O)Nc1ccc(F)c(C(=O)c2c[nH]c3ncc(-c4ccc(Cl)cc4)cc23)c1F [vemurafenib]
Summary of the method: as §1

[9] = compound: CCCS(=O)(=O)Nc1ccc(F)c(C(=O)c2c[nH]c3ncc(Cl)cc23)c1F
Summary of the method: as §1

barasertib = compound: CCN(CCCOc1ccc2c(Nc3cc(CC(=O)Nc4cccc(F)c4)[nH]n3)ncnc2c1)CCOP(=O)(O)O [barasertib]
Summary of the method: as §1

[10] = compound: CC[C@@H]1C(=O)N(C)c2cnc(Nc3ccc(C(=O)NC4CCN(C)CC4)cc3OC)nc2N1C1CCCC1
Summary of the method: as §1

volasertib = compound: CC[C@@H]1C(=O)N(C)c2cnc(Nc3ccc(C(=O)N[C@H]4CC[C@H](N5CCN(CC6CC6)CC5)CC4)cc3OC)nc2N1C(C)C [volasertib]
Summary of the method: as §1

[11] = compound: CCn1c(C(=O)N(C2CC2)C2CC2)cc2c3c(ncn3C)c(Nc3cc(C)n(C)n3)nc21
Summary of the method: as §1

[12] = compound: CCn1cc(-c2ccnc3[nH]c(-c4cccc(CN(C)C)c4)cc23)c(-c2ccc(NC(=O)N(C)C)cc2)n1
Summary of the method: as §1

[13] = compound: CN1CCC(CNc2ccc3ncc(-c4cccc(OC(F)(F)F)c4)n3n2)CC1
Summary of the method: as §1

saracatinib = compound: CN1CCN(CCOc2cc(OC3CCOCC3)c3c(Nc4c(Cl)ccc5c4OCO5)ncnc3c2)CC1 [saracatinib]
Summary of the method: as §1

sotrastaurin = compound: CN1CCN(c2nc(C3=C(c4c[nH]c5ccccc45)C(=O)NC3=O)c3ccccc3n2)CC1 [sotrastaurin]
Summary of the method: as §1

Target | log2 fold change (ibrutinib) | log2 fold change [1] | log2 fold change (ralimetinib) | log2 fold change [2] | log2 fold change [3] | log2 fold change [4] | log2 fold change [5] | log2 fold change [6] | log2 fold change [7] | log2 fold change [8] | log2 fold change (vemurafenib) | log2 fold change [9] | log2 fold change (barasertib) | log2 fold change [10] | log2 fold change (volasertib) | log2 fold change [11] | log2 fold change [12] | log2 fold change [13] | log2 fold change (saracatinib) | log2 fold change (sotrastaurin)
SEPTIN5 (UniProt Q99719) | inactive: 0.066 | inactive: -0.014 | inactive: 0.021 | inactive: 0.025 | inactive: 0.009 | inactive: 0.019 | inactive: -0.043 | inactive: -0.014 | inactive: -0.019 | inactive: 0.018 | inactive: -0.004 | inactive: 0.005 | inactive: -0.004 | inactive: -0.003 | inactive: -0.017 | inactive: 0.015 | inactive: 0.022 | inactive: -0.011 | inactive: -0.043 | inactive: -0.035
SCFD2 (UniProt Q8WU76) | inactive: -0.037 | inactive: -0.009 | inactive: 0.001 | inactive: -0.065 | inactive: 0.005 | inactive: 0.02 | inactive: -0.003 | inactive: 0.031 | inactive: 0.01 | inactive: 0.006 | inactive: 0.012 | inactive: 0.002 | inactive: -0.019 | inactive: -0.021 | inactive: 0.015 | inactive: 0.002 | inactive: 0.026 | inactive: 0.033 | inactive: -0.003 | inactive: 0.008
SCFD1 (UniProt Q8WVM8) | inactive: 0.006 | inactive: 0.007 | inactive: -0.001 | inactive: -0.009 | inactive: 0.016 | inactive: 0.019 | inactive: 0.023 | inactive: -0.023 | inactive: 0.011 | inactive: -0.001 | inactive: 0.007 | inactive: 0.001 | inactive: 0.021 | inactive: -0.011 | inactive: -0.045 | inactive: 0.021 | inactive: -0.036 | inactive: -0.002 | inactive: 0.038 | inactive: 0.043
SEC62 (UniProt Q99442) | inactive: 0.002 | inactive: -0.027 | inactive: -0.032 | inactive: -0.058 | inactive: 0.02 | inactive: 0.013 | inactive: -0.006 | inactive: 0.022 | inactive: 0.002 | inactive: -0.015 | inactive: -0.024 | inactive: 0.039 | inactive: 0.027 | inactive: 0.017 | inactive: 0.011 | inactive: 0 | active: 0.373 | inactive: -0.12 | inactive: -0.011 | inactive: -0.04
SCP2 (UniProt P22307) | inactive: 0.024 | inactive: -0.016 | inactive: 0.005 | inactive: -0.009 | inactive: -0.009 | inactive: -0.008 | inactive: -0.007 | inactive: 0.019 | inactive: -0.017 | inactive: -0.018 | inactive: -0.01 | inactive: -0.002 | inactive: 0.012 | inactive: 0.047 | inactive: 0.033 | inactive: -0.015 | inactive: 0.136 | inactive: -0.034 | inactive: -0.01 | inactive: -0.018
SDSL (UniProt Q96GA7) | inactive: 0.048 | inactive: -0.018 | inactive: 0.007 | inactive: 0.024 | inactive: -0.01 | inactive: -0.005 | inactive: -0.033 | inactive: 0.128 | inactive: -0.041 | inactive: 0.018 | inactive: -0.034 | inactive: 0.008 | inactive: 0.039 | inactive: -0.042 | inactive: 0 | inactive: 0.071 | inactive: -0.141 | inactive: 0.052 | inactive: 0.014 | inactive: -0.146
SELENOI (UniProt Q9C0D9) | inactive: 0.037 | inactive: -0.053 | inactive: -0.162 | inactive: -0.065 | inactive: -0.029 |  | inactive: 0.065 | inactive: 0.035 | inactive: -0.062 | inactive: 0.071 |  | inactive: 0.052 | inactive: 0.067 | inactive: 0.058 | inactive: -0.076 | inactive: 0.029 |  |  | inactive: 0.032 | inactive: -0.086
SELENOT (UniProt P62341) | inactive: -0.017 | inactive: 0.019 | inactive: 0.044 | inactive: -0.098 | inactive: -0.038 | inactive: -0.013 | inactive: -0.177 | inactive: 0.05 | inactive: 0.056 | inactive: -0.09 |  | inactive: 0.013 | inactive: 0.097 | inactive: 0.148 | inactive: -0.003 | inactive: -0.022 | inactive: -0.19 | inactive: 0.156 | inactive: -0.067 | inactive: 0.022
SCNM1 (UniProt Q9BWG6) |  | inactive: -0.026 | inactive: 0.013 | inactive: 0.012 | inactive: 0.062 | inactive: 0.065 | inactive: -0.189 | inactive: 0.06 | inactive: -0.069 | inactive: -0.221 |  | inactive: 0.012 |  | inactive: 0.122 | active: 0.372 | inactive: 0.099 | inactive: -0.033 | inactive: -0.005 | inactive: -0.092 | inactive: -0.023
SENP8 (UniProt Q96LD8) | inactive: 0.13 | inactive: 0.016 | inactive: -0.111 | inactive: -0.037 | inactive: -0.08 | inactive: 0.233 | inactive: 0.14 | inactive: 0.019 | inactive: 0.108 | inactive: 0.04 | inactive: 0.099 | inactive: 0.022 | inactive: 0.087 | inactive: 0.118 | inactive: -0.04 | inactive: 0.071 |  |  | inactive: 0.056 | inactive: 0.071
SEC11C (UniProt Q9BY50) | inactive: 0.04 | inactive: 0.011 | inactive: -0.008 | inactive: 0.016 | inactive: 0.007 | inactive: 0.026 | inactive: 0.017 | inactive: 0.028 | inactive: -0.113 | inactive: -0.024 | inactive: 0.02 | inactive: 0.006 | inactive: 0.038 |  | inactive: 0.025 | inactive: -0.038 | inactive: -0.123 | inactive: 0.009 | inactive: -0.04 | inactive: 0.025
SCGB1D2 (UniProt O95969) | inactive: -0.109 | inactive: -0.181 | inactive: -0.053 | inactive: 0.462 | inactive: -0.104 | inactive: 1.4 | inactive: 0.741 | inactive: -0.109 | inactive: -0.159 | inactive: -0.101 |  | inactive: -0.228 | inactive: 0.192 | inactive: 0.398 | inactive: -0.378 | inactive: 0.243 | inactive: 0.141 | inactive: -0.208 | inactive: 0.251 | inactive: -0.015

Record cards, as listed above. Values in the order: log2 fold change (ibrutinib)	log2 fold change [1]	log2 fold change (ralimetinib)	log2 fold change [2]	log2 fold change [3]	log2 fold change [4]	log2 fold change [5]	log2 fold change [6]	log2 fold change [7]	log2 fold change [8]	log2 fold change (vemurafenib)	log2 fold change [9]	log2 fold change (barasertib)	log2 fold change [10]	log2 fold change (volasertib)	log2 fold change [11]	log2 fold change [12]	log2 fold change [13]	log2 fold change (saracatinib)	log2 fold change (sotrastaurin)
SEC62 (UniProt Q99442) in the list: inactive: 0.002	inactive: -0.027	inactive: -0.032	inactive: -0.058	inactive: 0.02	inactive: 0.013	inactive: -0.006	inactive: 0.022	inactive: 0.002	inactive: -0.015	inactive: -0.024	inactive: 0.039	inactive: 0.027	inactive: 0.017	inactive: 0.011	inactive: 0	active: 0.373	inactive: -0.12	inactive: -0.011	inactive: -0.04
SEPTIN5 (UniProt Q99719) in the list: inactive: 0.066	inactive: -0.014	inactive: 0.021	inactive: 0.025	inactive: 0.009	inactive: 0.019	inactive: -0.043	inactive: -0.014	inactive: -0.019	inactive: 0.018	inactive: -0.004	inactive: 0.005	inactive: -0.004	inactive: -0.003	inactive: -0.017	inactive: 0.015	inactive: 0.022	inactive: -0.011	inactive: -0.043	inactive: -0.035
